Some of these results come from one statement about several compounds together. For some of these results: At least one structure is not confirmed: it was looked up by name or label, or the drawing left a doubt. Some ranges recur; such a range may be that of the whole group of compounds.
Assays:
Format in all cases: cell-based
BHK-21 cells = test: Anti-fibrosis activity test: inhibition of BHK-21 cell proliferation (CCK-8)
Method: (§1) BHK-21 cells in exponential growth phase were selected. After the fusion growth reached 85-95%, normal passage method was utilized to digest and collect the cells, followed by cell counting and adjusting the cell density to 2×10^4 cells/mL. The cells were seeded into 96-well plates, 100 μL/well, and were incubated under the condition of 5% CO2 at 37° C.
(§2) The supernatant was removed after the cells had adhered to the wall for 24 hours. The culture solution containing the prepared compounds at different concentrations were added to the wells, 100 μL/well, each concentration in triplicate. The cells were subcultured for 48 hours after administration. Commercially available pirfenidone was employed as the positive control.
(§3) 10 μL of CCK-8 solution ( 1/10 of the volume of the culture solution) was added to each well 48 hours after the administration, and incubated for 2 hours. The absorbance (A) of each well was determined by a microplate reader at 450 nm wavelength. The inhibition rate against cell proliferation for each compound was calculated based on A, wherein inhibition rate against cell proliferation (inhibition ratio, IR)=(1−value of experimental group (Ai)/value of blank control group (Ao))×100% and the IC50 value of each compound was calculated by the data processing software.

[1] = test system: human lung fibroblasts HFL1; test: Anti-fibrosis activity test: inhibition of proliferation of human lung fibroblasts HFL1 (CCK-8)
Method: as §1, §2, §3
(§4) Using the same protocol for the cell experiments, the inhibitory activity of the test compounds against the proliferation of human lung fibroblasts HFL1, human hepatic stellate cells LX-2, human fibrosarcoma cells HT-1080, human dermal fibroblasts CCC-ESF-1, human embryonic lung fibroblast IMR-90, cardiac fibroblast RAT-iCell-C002 was assayed.

[2] = test system: human hepatic stellate cells LX-2; test: Anti-fibrosis activity test: inhibition of proliferation of human hepatic stellate cells LX-2 (CCK-8)
Method: as §1, §2, §3, §4

[3] = test system: human fibrosarcoma cells HT-1080; test: Anti-fibrosis activity test: inhibition of proliferation of human fibrosarcoma cells HT-1080 (CCK-8)
Method: as §1, §2, §3, §4

[4] = test system: human dermal fibroblasts CCC-ESF-1; test: Anti-fibrosis activity test: inhibition of proliferation of human dermal fibroblasts CCC-ESF-1 (CCK-8)
Method: as §1, §2, §3, §4

[5] = test system: human embryonic lung fibroblast IMR-90; test: Anti-fibrosis activity test: inhibition of proliferation of human embryonic lung fibroblast IMR-90 (CCK-8)
Method: as §1, §2, §3, §4

[6] = test system: cardiac fibroblast RAT-iCell-C002; test: Anti-fibrosis activity test: inhibition of proliferation of cardiac fibroblast RAT-iCell-C002 (CCK-8)
Method: as §1, §2, §3, §4

NF-κB = test: Immunological activity test: inhibition of NF-κB activity; settings: initial concentration of 30 μM; a/b isomers given as first/second symbol; read-out: IC50 (μM), inhibitory activity against NF-κB
Excerpt: Main references for immunological activity test of the compounds of the present application includes: Vogl, S.; Atanasov, A. G.; Binder, M.; Bulusu, M.; Zehl, M.; Fakhrudin, N.; Heiss, E. H.; Picker, P.; Wawrosch, C.; Saukel, J.; Reznicek, G.; Urban, E.; Bochkov, V.; Dirsch, V. M.; Kopp, B. J. Evid-Based Complementary Alern. Med. 2013, ID 395316. Commercially available parthenolide was utilized as a positive control.
The ability of the compounds of the present application to inhibit NF-κB activity was tested at an initial concentration of 30 μM.
The assay data for the compounds of the present application were further analyzed to determine their IC50 values.

[7] = CCK-8, 48 hours after administration
[8] = human lung fibroblasts HFL1, CCK-8, 48 hours
[9] = human hepatic stellate cells LX-2, CCK-8, 48 hours
[10] = human fibrosarcoma cells HT-1080, CCK-8, 48 hours
[11] = human dermal fibroblasts CCC-ESF-1, CCK-8, 48 hours
[12] = human embryonic lung fibroblast IMR-90, CCK-8, 48 hours
[13] = cardiac fibroblast RAT-iCell-C002, CCK-8, 48 hours

Compound	IC50 (BHK-21 cells; [7])	IC50 [1, 8]	IC50 [2, 9]	IC50 [3, 10]	IC50 [4, 11]	IC50 [5, 12]	IC50 [6, 13]	IC50 (NF-κB)	IC50 (BHK-21 cells; 48 h, CCK-8)	IC50 ([1]; HFL1 cells, 48 h, CCK-8)	IC50 ([2]; LX-2 cells, 48 h, CCK-8)	IC50 ([3]; HT-1080 cells, 48 h, CCK-8)	IC50 ([4]; CCC-ESF-1 cells, 48 h, CCK-8)	IC50 ([5]; IMR-90 cells, 48 h, CCK-8)	IC50 ([6]; RAT-iCell-C002 cells, 48 h, CCK-8)
N#Cc1c(N2CCNCC2)ccc2c(=O)c3c(n(Cc4ccc(F)cc4)c12)-c1cccn1C3=O [Compound 486a, 4-(4-Fluorobenzyl)-9,10-dioxo-6-(piperazin-1-yl)-4,10-dihydro-9H-pyrrolizino[1,2-b]quinoline-5-carbonitrile]	0.05 to 5 mM	0.05 to 5 mM	0.05 to 5 mM	0.05 to 5 mM	0.05 to 5 mM	0.05 to 5 mM	0.05 to 5 mM	–	–	–	–	–	–	–	–
N#Cc1c(N2CCNCC2)ccc2c(OCc3ccc(F)cc3)c3c(nc12)-c1cccn1C3=O [Compound 486b, 9-((4-fluorobenzyl)oxy)-10-oxo-6-(piperazin-1-yl)-10H-pyrrolizino[1,2-b]quinoline-5-carbonitrile]	0.05 to 5 mM	0.05 to 5 mM	0.05 to 5 mM	0.05 to 5 mM	0.05 to 5 mM	0.05 to 5 mM	0.05 to 5 mM	–	–	–	–	–	–	–	–
O=C1c2c(n(Cc3ccc(Cl)cc3)c3c(C(F)(F)F)c(N4CCNCC4)ccc3c2=O)-c2cccn21 [Compound 487a, 4-(4-Chlorobenzyl)-6-(piperazin-1-yl)-5-(trifluoromethyl)-9H-pyrrolizino[1,2-b]quinoline-9,10(4H)-dione]	0.05 to 5 mM	0.05 to 5 mM	0.05 to 5 mM	0.05 to 5 mM	0.05 to 5 mM	0.05 to 5 mM	–	–	–	–	–	–	–	–	–
O=C1c2c(nc3c(C(F)(F)F)c(N4CCNCC4)ccc3c2OCc2ccc(Cl)cc2)-c2cccn21 [Compound 487b, 9-((4-chlorobenzyl)oxy)-6-(piperazin-1-yl)-5-(trifluoromethyl)-10H-pyrrolizino[1,2-b]quinolin-10-one]	0.05 to 5 mM	0.05 to 5 mM	0.05 to 5 mM	0.05 to 5 mM	0.05 to 5 mM	0.05 to 5 mM	–	–	–	–	–	–	–	–	–
O=C1c2c(n(Cc3ccc(F)cc3F)c3cc(N4CCNCC4)ccc3c2=O)-c2cccn21 [Compound 622a, 4-(2,4-Difluorobenzyl)-6-(piperazin-1-yl)-9H-pyrrolizino[1,2-b]quinoline-9,10(4H)-dione]	–	–	0.05 to 5 mM	–	–	–	–	–	–	–	–	–	–	–	–
O=C1c2c(nc3cc(N4CCNCC4)ccc3c2OCc2ccc(F)cc2F)-c2cccn21 [Compound 622b, 9-((2,4-difluorobenzyl)oxy)-6-(piperazin-1-yl)-10H-pyrrolizino[1,2-b]quinolin-10-one]	–	0.05 to 5 mM	0.05 to 5 mM	–	–	–	–	–	–	–	–	–	–	–	–
O=C1c2c(n(Cc3ccc(F)cc3F)c3cc(N4CCNCC4)ccc3c2=O)-c2cccn21 [Compound 630a, 4-(2,4-Difluorobenzyl)-6-(piperazin-1-yl)-9H-pyrrolizino[1,2-b]quinoline-9,10(4H)-dione]	–	–	5 to 20 mM	0.05 to 5 mM	0.05 to 5 mM	0.05 to 5 mM	0.05 to 5 mM	1 to 10 µM	–	–	–	–	–	–	–
O=C1c2c(nc3cc(N4CCNCC4)ccc3c2OCc2ccc(F)cc2F)-c2cccn21 [Compound 630b, 9-((2,4-difluorobenzyl)oxy)-6-(piperazin-1-yl)-10H-pyrrolizino[1,2-b]quinolin-10-one]	–	–	5 to 20 mM	0.05 to 5 mM	0.05 to 5 mM	0.05 to 5 mM	0.05 to 5 mM	1 to 10 µM	–	–	–	–	–	–	–
O=C1c2c(nc3cc(N4CCNCC4)ccc3c2OCc2cc(C(F)(F)F)cc(C(F)(F)F)c2)-c2cccn21 [Compound 631b, 9-((3,5-bis(trifluoromethyl)benzyl)oxy)-6-(piperazin-1-yl)-10H-pyrrolizino[,2-b]quinolin-10-one]	0.05 to 5 mM	0.05 to 5 mM	0.05 to 5 mM	0.05 to 5 mM	0.05 to 5 mM	0.05 to 5 mM	0.05 to 5 mM	–	–	–	–	–	–	–	–
O=C1c2c(n(Cc3ccc(-c4ccccc4)cc3)c3ccccc3c2=O)-c2cccn21 [Compound 674a]	–	–	–	–	–	–	–	–	0.05 to 5 mM	0.05 to 5 mM	0.05 to 5 mM	0.05 to 5 mM	0.05 to 5 mM	0.05 to 5 mM	0.05 to 5 mM
